Five sequences from patent US20150023943 can be followed below.

Data set [1] concerns the target T1, φW39 ΔN59 Ref (Bacteriophage phi W39) (UniProt P35926).
T1 sequence: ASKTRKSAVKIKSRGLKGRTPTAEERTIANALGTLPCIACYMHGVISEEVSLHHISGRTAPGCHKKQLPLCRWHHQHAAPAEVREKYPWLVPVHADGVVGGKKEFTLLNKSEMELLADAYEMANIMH
Briefly: FP. The following applies: reduced affinity; purified recombinant protein; protein details: expressed from pET21A with NdeI start Met; label: 5'-6FAM on AJM25.

In data set [2] the target is T2, φW39 ΔN66 Ref (Bacteriophage phi W39) (UniProt P35926).
T2 sequence: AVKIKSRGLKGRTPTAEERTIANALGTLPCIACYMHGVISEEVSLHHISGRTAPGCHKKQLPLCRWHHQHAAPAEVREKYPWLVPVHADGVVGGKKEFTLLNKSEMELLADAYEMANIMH
Briefly: FP. The following applies: purified recombinant protein, protein details: expressed from pET21A with NdeI start Met.

The target of data set [3] is T3, φW39 Ref (wild type) (Bacteriophage phi W39) (UniProt P35926).
T3 sequence: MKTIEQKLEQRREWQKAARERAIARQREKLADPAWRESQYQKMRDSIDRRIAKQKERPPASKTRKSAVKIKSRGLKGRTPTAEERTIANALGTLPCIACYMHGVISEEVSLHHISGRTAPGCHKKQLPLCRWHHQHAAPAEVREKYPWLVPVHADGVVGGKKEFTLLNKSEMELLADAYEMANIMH
Briefly: enzyme reaction in vitro. As to conditions: purified recombinant protein, folded or branched DNA.

Data set [4] concerns the target T4, P1 Ref (wild type) (Bacteriophage P1) (UniProt P35926).
T4 sequence: T3 sequence with L8I, R11C, E13K, A34V, S46T, I47L, T86R, T93A, E107N, S115A
The data set is described as follows: enzyme reaction in vitro. The following applies: 3 h; 100 nM Ref, 1.33 uM RecA E38K, ATP, 15 mM Mg, 37 C; unaffected by 10 mM DTT; purified recombinant protein; folded or branched DNA.

In data set [5] the target is T5, TMO hybrid Ref (Artificial Sequence) (UniProt P35926).
T5 sequence: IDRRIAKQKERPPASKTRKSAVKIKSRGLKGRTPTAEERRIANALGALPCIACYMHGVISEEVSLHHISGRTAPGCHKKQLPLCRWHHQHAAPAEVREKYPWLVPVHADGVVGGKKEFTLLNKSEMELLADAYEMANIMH
The data set is described as follows: enzyme reaction in vitro. As to conditions: RecA E38K, ATP, Mg; about two-fold more at 30 min per p142; purified recombinant protein; folded or branched DNA.

Data set [6] concerns the target T6, φW39 ΔN21 Ref (Bacteriophage phi W39) (UniProt P35926).
T6 sequence: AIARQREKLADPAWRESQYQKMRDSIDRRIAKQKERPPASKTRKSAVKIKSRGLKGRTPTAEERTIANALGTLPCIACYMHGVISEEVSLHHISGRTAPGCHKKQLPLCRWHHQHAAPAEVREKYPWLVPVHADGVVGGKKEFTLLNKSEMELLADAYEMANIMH
Briefly: enzyme reaction in vitro. The following applies: RecA E38K, ATP, Mg; about two-fold more at 30 min per p142; purified recombinant protein; protein details: expressed from pET21A with NdeI start Met; folded or branched DNA.

The target of data set [7] is T7, φW39 ΔN47 Ref (Bacteriophage phi W39) (UniProt P35926).
T7 sequence: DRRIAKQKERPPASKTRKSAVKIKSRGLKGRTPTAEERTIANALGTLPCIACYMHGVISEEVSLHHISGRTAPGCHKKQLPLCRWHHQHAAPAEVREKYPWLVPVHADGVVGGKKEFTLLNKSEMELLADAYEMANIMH
Briefly: enzyme reaction in vitro. As to conditions: RecA E38K, ATP, Mg; about two-fold more at 30 min per p142; purified recombinant protein; protein details: expressed from pET21A with NdeI start Met; folded or branched DNA.

In data set [8] the target is T1, φW39 ΔN59 Ref (Bacteriophage phi W39). The data set is described as follows: enzyme reaction in vitro. The following applies: kinetics identical to WT; RecA E38K, ATP, Mg; purified recombinant protein; protein details: expressed from pET21A with NdeI start Met; folded or branched DNA.
The target of data set [9] is T2, φW39 ΔN66 Ref (Bacteriophage phi W39). The data set is described as follows: enzyme reaction in vitro. The following applies: RecA E38K, ATP, Mg; purified recombinant protein; protein details: expressed from pET21A with NdeI start Met; folded or branched DNA.
Data set [10] addresses T8, φW39 ΔN74 Ref (Bacteriophage phi W39) (UniProt P35926).
T8 sequence: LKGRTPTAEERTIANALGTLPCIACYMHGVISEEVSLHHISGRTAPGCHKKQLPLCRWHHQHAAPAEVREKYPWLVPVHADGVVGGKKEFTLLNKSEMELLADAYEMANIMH
Briefly: enzyme reaction in vitro. The following applies: 3 h; reduced but significant nicking; near WT product at 50-fold higher protein (p143); purified recombinant protein; protein details: expressed from pET21A with NdeI start Met; folded or branched DNA.

Where [11] appears, read: two DSBs with two separate oligos (500 or 1000 bases apart), pairing of oligos not stated.

Residue numbers refer to the chain shown, from its start. For some of these results: The comparison behind a weaker result is the experiment's own reference, which may not be listed here. Where a protein sequence is shown, tags need not be part of it. For some of these results: Construct, isoform or probe ends are uncertain for at least one entry.

Turning to “CAGAAGTAAGTTGGCCGCAGTGTTATCACTCATGGTTATGGCAGCACTGCATAATTCTCTTACTGTCATGC (double strand) [AJM25/AJG52 71 bp dsDNA]”, the binding result is recorded as “binds more weakly” in [1] and “binds more weakly” in data set [2] (further reduced affinity, label: 5'-6FAM on AJM25).

On to “CAGAAGTAAGTTGGCCGCAGTGTTATCACTCATGGTTATGGCAGCACTGCATAATTCTCTTACTGTCATGC [AJM25 71mer ssDNA]”, for which the binding result in [2] (further reduced versus ΔN59, saturation not attainable, label: …, single-stranded DNA) was “binds more weakly”.

Turning to “ATGCTACAGGCGTTGTAGTTTGTACTGGTGACGAAACTCAGTGTTACGGTACATGGGTTCCTATTGGGCTTGCTATCCCTGAAAATGAGGGTGGTGGCTCTGAGGGTGGCGGTTCTGAGGGTGGCGGTTCTGAGGGTGGC [TMO7 targeting oligo, D-loop in M13mp18 dsDNA]”, the “activity on this sequence” value in data set [3] (setting [11]) is “active”.

“TGGTGCCTTCGTAGTGGCATTACGTATTTTACCCGTTTAATGGAAACTTCCTCATGAAAAAGTCTTTAGTCCTCAAAGCCTCTGTAGCCGTTGCTACCCTCGTTCCGATGCTGTCTTTCGCTGCTGAGGGTGACGATCCC [TMO6 targeting oligo, D-loop in M13mp18 dsDNA]”: in data set [3] (setting [11]), the “activity on this sequence” value is “active”.

“TTTTGGTTTTTATCGTCGTCTGGTAAACGAGGGTTATGATAGTGTTGCTCTTACTATGCCTCGTAATTCCTTTTGGCGTTATGTATCTGCATTAGTTGAATGTGGTATTCCTAAATCTCAACTGATGAATCTTTCTACCTGTAATAATGT [rlb1 150mer D-loop in M13mp18 supercoiled dsDNA]”: the activity on this sequence was 63 % linearized in [4]; “active” in data set [5]; 63 % linearized in data set [3] (3 h, 100 nM Ref, 1.33 uM RecA E38K, ATP, 15 mM Mg, 37 C); “active” in data set [6]; “active” in data set [7]; 63 % linearized in [8]. For the same sequence, the activity on this sequence in [10] stood at 4 % linearized. The activity on this sequence (fold reduction versus WT) in [9] came to 2.
